Measurements reported in PubChem BioAssay AID504808 (Drosophila RNAi Screening Center, 2011).

Purpose: 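Fly genes required to hold E2F transcription in check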 (primary screen)
Cells: Drosophila S2 cells
Reagent: long dsRNA against Drosophila genes
Detection: 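Dual luciferase plate measurements; E2F-specific signal taken as firefly over Renilla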
Scale: E2F firefly: higher = more E2F reporter activity; Renilla normaliser: higher = more normaliser reporter signal
Hit rule: 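a knock-down counted as active when the firefly/Renilla E2F signal rose above 50%, a threshold chosen arbitrarily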
The screen tested about 21,000 reagents; shown is a random part of those with a known target gene and a result. Over the whole deposit, 18 (0.084%) got an active call. 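Raw counts without plate normalisation, one of two replicates; the ratio scores behind the calls were not deposited.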 Entries without a mark were called inactive. A plus sign joins genes that one reagent is predicted to hit. Reagent sequences are not shown. Not given: the amount of reagent, the time to read-out.

gene knocked down	dsRNA	E2F firefly, rep 1	Renilla normaliser, rep 1
MICU3 (GeneID 42357)	DRSC13381	74440	2619
MICU3 (GeneID 42357)	DRSC15613	73354	4051
CG6481 (GeneID 32843)	DRSC19995	1.48e5	5349
CG5107 (GeneID 43084)	DRSC15716	1830	1140
Srg2 + CG42826	DRSC10681	78336	3554
Srg2 + CG42826	DRSC10682	5055	263
GstD7 (GeneID 48340)	DRSC16688	1.38e5	6101
Cyp6g2 (GeneID 36317)	DRSC07387	1.06e5	4612
coil (GeneID 35785)	DRSC07242	2702	212
CG33124 (GeneID 318891)	DRSC00298	1.63e5	5115
CG9101 (GeneID 32452)	DRSC20152	1.54e5	7966
MED30 (GeneID 38078)	DRSC08516	74811	3271
Hsp70Bc (GeneID 48583)	DRSC16053	1.11e5	7273
CG9514 (GeneID 32418)	DRSC20190	1.45e5	6343
CG9514 (GeneID 32418)	DRSC20191	1.53e5	6688
stan (GeneID 36125)	DRSC05234	1.16e5	3842
stan (GeneID 36125)	DRSC07697	1.38e5	5489
ReepA (GeneID 37643)	DRSC04572	84879	3369
LRR (GeneID 35715)	DRSC06444	1.48e5	5278
nord (GeneID 37882)	DRSC04210	1.14e5	4839
nord (GeneID 37882)	DRSC04361	1.17e5	4636
CG3288 (GeneID 40307)	DRSC11745	1.49e5	8250
CG10417 (GeneID 35492)	DRSC04846	80724	3487
CG33627 (GeneID 3772219)	DRSC05343	1.16e5	4369
CG32706 + CG6999	DRSC18412	59703	4907
CG45263 (GeneID 50003)	DRSC12682	62218	3670
CG45263 (GeneID 50003)	DRSC14360	1.38e5	6169
CG45263 (GeneID 50003)	DRSC14361	1.35e5	6721
CG45263 (GeneID 50003)	DRSC14363	1.72e5	7118
CG10910 (GeneID 37052)	DRSC06007	1.39e5	5738
gig (GeneID 40201)	DRSC11351	63653	3452
CG16922 (retired record) (GeneID 32030)	DRSC19758	1.03e5	5378

Next part (6 carried over from the part before).
gene knocked down	dsRNA	E2F firefly, rep 1	Renilla normaliser, rep 1
CG45263 (GeneID 50003)	DRSC14360	1.38e5	6169
CG45263 (GeneID 50003)	DRSC14361	1.35e5	6721
CG45263 (GeneID 50003)	DRSC14363	1.72e5	7118
CG10910 (GeneID 37052)	DRSC06007	1.39e5	5738
gig (GeneID 40201)	DRSC11351	63653	3452
CG16922 (retired record) (GeneID 32030)	DRSC19758	1.03e5	5378
pelo (GeneID 34286)	DRSC03588	85706	3571
CG12689 (GeneID 31676)	DRSC17879	1.28e5	6282
Mst87F (GeneID 41693)	DRSC16747	1.11e5	5432
Vps26 (GeneID 31144)	DRSC18555	1838	860
CG9997 (GeneID 43395)	DRSC16591	1.30e5	7346
RpL13 (GeneID 34329)	DRSC03416	38228	3292
Tengl1 (GeneID 318883)	DRSC00481	1.75e5	6231
AdamTS-B (GeneID 31490)	DRSC18346	1.11e5	5760
Sld5 (GeneID 43166)	DRSC14892	1.29e5	6622
CG11679 (GeneID 32515)	DRSC19415	6923	828
CG8915 (GeneID 32715)	DRSC20119	1.53e5	5819
UbcE2M (GeneID 38916)	DRSC10828	64455	3305
Ass + CG31286	DRSC12493	1.33e5	5984
mod(mdg4) + pre-mod(mdg4)-Z + pre-mod(mdg4)-T	DRSC13477	79210	2192
mod(mdg4) + pre-mod(mdg4)-Z + pre-mod(mdg4)-T	DRSC17001	1.12e5	7239
CG7406 (GeneID 32892)	DRSC20042	1.58e5	6284
CG14238 (GeneID 43195)	DRSC14732	1.01e5	7032
tyf (GeneID 31363)	DRSC18382	98761	4899
rho (GeneID 38168)	DRSC08734	1.03e5	3707
VhaM9.7-c (GeneID 38503)	DRSC08204	73339	3306
CG12842 (retired record) (GeneID 35619)	DRSC06188	1.49e5	4649
SmydA-6 (GeneID 36917)	DRSC07341	1.44e5	5218
twi (GeneID 37655)	DRSC04720	87156	4241
Hsp27 (GeneID 39078)	DRSC11190	73139	3629
CG1463 (GeneID 32211)	DRSC19603	7763	732
